# ± gives the standard deviation of the averaged measurements. Only a part is listed here, and it is no random draw. Most values lie at the level of the controls, where differences are scatter.
# Amino acid sequences for entries named in this document (tags omitted). A change or cut given only in a name is not applied to a line headed by its entry.
# UniProt Q9BX67: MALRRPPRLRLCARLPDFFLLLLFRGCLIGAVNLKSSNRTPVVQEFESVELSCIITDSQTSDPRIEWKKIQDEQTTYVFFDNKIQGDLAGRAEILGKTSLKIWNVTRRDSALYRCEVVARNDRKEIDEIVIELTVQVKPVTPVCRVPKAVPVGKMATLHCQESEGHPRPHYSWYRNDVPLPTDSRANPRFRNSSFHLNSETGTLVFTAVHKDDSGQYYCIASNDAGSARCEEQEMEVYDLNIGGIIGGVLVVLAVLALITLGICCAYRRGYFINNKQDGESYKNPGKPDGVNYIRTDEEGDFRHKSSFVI
# UniProt Q99996, whole entry: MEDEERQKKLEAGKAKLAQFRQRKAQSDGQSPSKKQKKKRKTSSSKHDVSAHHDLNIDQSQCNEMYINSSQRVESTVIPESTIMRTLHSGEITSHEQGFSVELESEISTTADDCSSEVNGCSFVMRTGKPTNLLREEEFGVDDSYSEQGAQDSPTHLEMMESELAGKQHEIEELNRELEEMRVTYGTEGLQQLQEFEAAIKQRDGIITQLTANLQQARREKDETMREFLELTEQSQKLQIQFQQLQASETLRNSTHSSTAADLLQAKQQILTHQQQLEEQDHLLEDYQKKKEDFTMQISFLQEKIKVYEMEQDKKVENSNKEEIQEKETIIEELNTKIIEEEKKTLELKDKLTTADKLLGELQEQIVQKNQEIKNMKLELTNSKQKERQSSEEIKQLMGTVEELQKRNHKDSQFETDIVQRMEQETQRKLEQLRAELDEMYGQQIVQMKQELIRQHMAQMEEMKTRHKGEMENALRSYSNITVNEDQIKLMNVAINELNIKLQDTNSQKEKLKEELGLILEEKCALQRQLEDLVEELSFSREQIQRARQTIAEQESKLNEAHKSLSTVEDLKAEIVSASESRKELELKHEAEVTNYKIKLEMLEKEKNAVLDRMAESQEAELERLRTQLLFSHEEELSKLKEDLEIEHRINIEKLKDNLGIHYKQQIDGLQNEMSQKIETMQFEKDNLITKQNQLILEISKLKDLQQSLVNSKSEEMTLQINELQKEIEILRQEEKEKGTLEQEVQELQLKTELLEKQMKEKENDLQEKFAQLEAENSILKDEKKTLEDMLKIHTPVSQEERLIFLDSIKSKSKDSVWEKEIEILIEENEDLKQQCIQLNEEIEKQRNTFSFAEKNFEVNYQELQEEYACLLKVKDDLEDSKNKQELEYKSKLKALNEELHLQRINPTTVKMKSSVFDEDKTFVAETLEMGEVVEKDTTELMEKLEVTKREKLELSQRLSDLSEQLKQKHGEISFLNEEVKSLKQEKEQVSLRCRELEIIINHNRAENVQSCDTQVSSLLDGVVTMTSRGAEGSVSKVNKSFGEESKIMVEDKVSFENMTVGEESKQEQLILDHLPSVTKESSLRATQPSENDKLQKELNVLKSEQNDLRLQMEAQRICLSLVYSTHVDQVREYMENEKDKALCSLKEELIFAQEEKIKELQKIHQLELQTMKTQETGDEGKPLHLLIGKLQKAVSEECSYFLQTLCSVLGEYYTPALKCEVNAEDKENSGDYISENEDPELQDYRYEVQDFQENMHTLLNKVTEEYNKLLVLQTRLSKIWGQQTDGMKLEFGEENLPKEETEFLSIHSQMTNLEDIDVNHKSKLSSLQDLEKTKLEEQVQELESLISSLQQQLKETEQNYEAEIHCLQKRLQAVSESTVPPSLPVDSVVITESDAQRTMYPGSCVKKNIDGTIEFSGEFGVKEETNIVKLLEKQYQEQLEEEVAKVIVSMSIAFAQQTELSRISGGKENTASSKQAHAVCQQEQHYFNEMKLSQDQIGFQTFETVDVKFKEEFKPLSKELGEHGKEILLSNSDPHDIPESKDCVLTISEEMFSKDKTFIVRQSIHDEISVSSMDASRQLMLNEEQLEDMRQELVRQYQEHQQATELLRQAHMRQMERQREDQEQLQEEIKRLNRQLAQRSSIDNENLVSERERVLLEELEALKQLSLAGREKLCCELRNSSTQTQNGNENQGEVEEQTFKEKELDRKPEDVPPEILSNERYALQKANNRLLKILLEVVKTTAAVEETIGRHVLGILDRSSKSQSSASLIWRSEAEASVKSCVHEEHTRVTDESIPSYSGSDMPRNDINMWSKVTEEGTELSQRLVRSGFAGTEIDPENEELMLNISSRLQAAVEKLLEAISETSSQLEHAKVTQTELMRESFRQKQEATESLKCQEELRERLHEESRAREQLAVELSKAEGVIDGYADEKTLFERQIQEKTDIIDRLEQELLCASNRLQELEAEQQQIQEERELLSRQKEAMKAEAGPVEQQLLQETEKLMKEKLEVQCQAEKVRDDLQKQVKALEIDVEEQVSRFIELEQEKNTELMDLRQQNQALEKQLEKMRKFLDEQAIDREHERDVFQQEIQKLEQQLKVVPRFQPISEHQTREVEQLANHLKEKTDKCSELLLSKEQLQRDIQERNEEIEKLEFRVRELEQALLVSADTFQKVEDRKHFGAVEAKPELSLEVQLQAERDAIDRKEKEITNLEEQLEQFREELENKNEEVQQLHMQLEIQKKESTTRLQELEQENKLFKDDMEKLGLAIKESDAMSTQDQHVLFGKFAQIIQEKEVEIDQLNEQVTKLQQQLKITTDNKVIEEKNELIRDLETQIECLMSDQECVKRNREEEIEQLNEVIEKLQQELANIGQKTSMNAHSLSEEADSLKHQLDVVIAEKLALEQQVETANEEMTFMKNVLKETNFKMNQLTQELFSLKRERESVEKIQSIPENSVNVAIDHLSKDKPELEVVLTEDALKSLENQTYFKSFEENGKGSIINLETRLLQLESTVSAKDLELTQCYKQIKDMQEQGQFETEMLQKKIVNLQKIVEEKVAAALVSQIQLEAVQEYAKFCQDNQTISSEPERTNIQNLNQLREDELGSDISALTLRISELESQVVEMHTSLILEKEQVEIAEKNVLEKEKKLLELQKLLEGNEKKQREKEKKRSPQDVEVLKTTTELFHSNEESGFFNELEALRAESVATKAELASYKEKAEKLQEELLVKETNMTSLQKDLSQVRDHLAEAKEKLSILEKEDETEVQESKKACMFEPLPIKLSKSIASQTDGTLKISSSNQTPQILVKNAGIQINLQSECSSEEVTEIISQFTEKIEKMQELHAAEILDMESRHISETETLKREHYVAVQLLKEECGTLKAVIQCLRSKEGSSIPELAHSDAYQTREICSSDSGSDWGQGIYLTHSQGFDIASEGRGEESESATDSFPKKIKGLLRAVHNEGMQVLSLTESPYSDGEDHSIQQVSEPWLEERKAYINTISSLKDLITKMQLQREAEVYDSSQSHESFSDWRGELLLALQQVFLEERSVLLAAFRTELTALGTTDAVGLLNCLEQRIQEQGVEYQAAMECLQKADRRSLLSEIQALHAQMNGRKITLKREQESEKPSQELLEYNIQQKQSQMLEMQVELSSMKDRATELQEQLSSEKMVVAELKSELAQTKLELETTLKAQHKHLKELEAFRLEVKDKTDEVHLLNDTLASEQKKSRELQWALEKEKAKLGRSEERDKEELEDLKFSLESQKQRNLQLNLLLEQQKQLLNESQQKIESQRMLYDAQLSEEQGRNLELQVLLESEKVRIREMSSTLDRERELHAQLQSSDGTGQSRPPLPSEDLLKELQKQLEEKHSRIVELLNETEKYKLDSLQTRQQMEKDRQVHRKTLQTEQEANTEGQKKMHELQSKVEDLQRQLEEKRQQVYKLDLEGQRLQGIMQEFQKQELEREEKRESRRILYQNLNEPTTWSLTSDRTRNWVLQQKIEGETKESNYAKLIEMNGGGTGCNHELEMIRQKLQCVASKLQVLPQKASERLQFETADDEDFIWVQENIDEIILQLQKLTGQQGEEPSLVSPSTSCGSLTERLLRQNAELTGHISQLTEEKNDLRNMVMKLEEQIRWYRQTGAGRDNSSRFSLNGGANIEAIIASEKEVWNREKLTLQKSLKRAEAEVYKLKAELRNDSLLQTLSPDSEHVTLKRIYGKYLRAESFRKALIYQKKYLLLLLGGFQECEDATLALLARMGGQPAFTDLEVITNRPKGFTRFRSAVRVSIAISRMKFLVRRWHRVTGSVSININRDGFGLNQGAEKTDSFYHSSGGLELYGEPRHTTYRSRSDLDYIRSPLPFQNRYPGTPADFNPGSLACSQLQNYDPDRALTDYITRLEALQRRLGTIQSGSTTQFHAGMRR
# UniProt Q99797: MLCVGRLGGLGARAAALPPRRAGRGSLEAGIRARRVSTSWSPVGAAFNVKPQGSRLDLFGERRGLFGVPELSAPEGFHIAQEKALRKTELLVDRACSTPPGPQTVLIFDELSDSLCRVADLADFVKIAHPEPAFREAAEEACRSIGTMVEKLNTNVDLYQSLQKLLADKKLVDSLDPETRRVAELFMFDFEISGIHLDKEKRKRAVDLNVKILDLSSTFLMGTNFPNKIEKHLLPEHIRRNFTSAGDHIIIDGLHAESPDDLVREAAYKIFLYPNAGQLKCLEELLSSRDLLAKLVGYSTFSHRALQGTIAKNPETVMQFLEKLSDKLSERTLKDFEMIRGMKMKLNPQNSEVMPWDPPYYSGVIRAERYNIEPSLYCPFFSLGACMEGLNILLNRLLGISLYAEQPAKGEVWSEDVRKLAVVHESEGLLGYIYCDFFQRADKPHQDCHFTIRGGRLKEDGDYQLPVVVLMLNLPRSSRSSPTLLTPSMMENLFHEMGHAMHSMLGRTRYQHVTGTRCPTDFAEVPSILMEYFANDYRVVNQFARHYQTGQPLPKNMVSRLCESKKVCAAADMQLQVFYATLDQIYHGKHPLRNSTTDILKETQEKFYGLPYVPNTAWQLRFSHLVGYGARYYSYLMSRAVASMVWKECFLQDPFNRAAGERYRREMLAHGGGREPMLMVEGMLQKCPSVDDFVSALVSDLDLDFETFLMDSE
# UniProt Q9BX68: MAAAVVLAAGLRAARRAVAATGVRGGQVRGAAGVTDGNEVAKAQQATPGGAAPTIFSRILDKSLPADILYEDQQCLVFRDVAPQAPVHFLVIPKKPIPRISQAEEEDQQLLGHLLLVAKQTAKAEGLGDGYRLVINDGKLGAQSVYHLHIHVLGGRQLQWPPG
# UniProt Q9BSD7: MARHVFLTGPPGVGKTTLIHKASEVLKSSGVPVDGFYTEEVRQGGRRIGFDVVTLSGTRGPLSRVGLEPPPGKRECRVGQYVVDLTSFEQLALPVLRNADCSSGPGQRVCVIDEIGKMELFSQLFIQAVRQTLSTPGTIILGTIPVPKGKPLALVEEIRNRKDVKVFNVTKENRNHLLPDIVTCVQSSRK
# UniProt Q9BRP4: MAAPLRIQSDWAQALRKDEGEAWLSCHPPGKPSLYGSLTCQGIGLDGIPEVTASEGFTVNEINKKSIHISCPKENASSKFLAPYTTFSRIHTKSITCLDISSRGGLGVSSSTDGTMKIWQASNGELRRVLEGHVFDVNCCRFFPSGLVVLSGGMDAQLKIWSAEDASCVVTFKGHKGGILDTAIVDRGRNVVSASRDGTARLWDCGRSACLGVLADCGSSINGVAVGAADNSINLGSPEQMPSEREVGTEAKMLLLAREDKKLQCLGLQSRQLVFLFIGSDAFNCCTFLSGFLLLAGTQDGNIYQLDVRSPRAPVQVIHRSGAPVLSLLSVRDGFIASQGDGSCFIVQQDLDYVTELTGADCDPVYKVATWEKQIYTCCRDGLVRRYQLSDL
# UniProt Q9BVC6: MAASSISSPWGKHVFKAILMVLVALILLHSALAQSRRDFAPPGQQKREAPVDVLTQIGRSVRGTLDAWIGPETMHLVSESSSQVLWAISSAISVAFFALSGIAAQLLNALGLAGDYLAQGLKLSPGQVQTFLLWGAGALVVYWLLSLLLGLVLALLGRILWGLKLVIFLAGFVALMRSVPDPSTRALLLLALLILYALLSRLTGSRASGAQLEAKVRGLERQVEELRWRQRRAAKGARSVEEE
# UniProt Q9BXK5, whole entry: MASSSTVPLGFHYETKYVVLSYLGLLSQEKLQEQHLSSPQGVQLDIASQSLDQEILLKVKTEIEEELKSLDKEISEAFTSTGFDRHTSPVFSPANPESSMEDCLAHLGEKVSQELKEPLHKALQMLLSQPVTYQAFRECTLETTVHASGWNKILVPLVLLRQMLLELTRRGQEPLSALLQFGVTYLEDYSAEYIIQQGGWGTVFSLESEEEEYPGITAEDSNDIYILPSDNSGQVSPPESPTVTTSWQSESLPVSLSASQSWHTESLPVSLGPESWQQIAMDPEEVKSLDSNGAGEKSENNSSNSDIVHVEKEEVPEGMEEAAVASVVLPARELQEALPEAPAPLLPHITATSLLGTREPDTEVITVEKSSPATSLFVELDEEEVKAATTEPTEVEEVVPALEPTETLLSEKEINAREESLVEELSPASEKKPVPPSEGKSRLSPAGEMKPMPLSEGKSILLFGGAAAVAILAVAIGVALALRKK
# UniProt Q99653: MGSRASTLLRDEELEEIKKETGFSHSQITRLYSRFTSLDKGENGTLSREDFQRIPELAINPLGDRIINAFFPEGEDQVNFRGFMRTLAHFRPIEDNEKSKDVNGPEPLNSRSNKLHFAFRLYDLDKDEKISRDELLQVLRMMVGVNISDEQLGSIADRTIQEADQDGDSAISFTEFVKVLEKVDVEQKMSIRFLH
# Compound: Nc1ncnc2c1ncn2[C@@H]1O[C@H](COP(=O)(O)OP(=O)(O)OP(=O)(O)O)[C@@H](O)[C@H]1O [adenosine triphosphate]
# Assay: NP40-soluble protein abundance relative to vehicle (solubility fold change) (ratio); higher = more soluble protein in presence of ATP
# How it was run: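 Crude Jurkat lysate, prepared by Dounce homogenisation, was exposed to eight concentrations from 0.1 to 10 mM for 10 min at room temperature and then 3 min at 37 °C. Solubilisation used 0.8% NP40 with benzonase for 60 min at 4 °C, followed by ultracentrifugation and TMT labelling of the supernatant for LC-MS/MS. After vsn normalisation of intensities, each value is the fold change against the detergent-processed vehicle within each replicate, across three independent experiments.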
Target,NP40-soluble protein abundance (concentration: 0.1mM),NP40-soluble protein abundance (concentration: 0.5mM),NP40-soluble protein abundance (concentration: 1mM),NP40-soluble protein abundance (concentration: 2mM),NP40-soluble protein abundance (concentration: 4mM),NP40-soluble protein abundance (concentration: 6mM),NP40-soluble protein abundance (concentration: 8mM),NP40-soluble protein abundance (concentration: 10mM)
UniProt Q9BQ52 and related entries,1.02 ± 0.028,1.02 ± 0.024,,,,,,
UniProt Q9BZF2,1.13 ± 0.11,1.1 ± 0.11,,,,,,
UniProt Q9BSH4,0.99 ± 0.068,0.99 ± 0.033,,,,,,
UniProt Q99504 and related entries,1.04 ± 0.062,1.08 ± 0.025,,,,,,
UniProt Q9BX67,0.99 ± 0.059,1 ± 0.033,,,,,,
UniProt Q9BTC8 and related entries,1.07 ± 0.066,1.075 ± 0.008,,,,,,
UniProt Q9BU61,1 ± 0.059,0.952 ± 0.016,,,,,,
UniProt Q9BYG3,1.02 ± 0.071,1.07 ± 0.051,,,,,,
ACBD6 (UniProt Q9BR61),0.95 ± 0.035,0.929 ± 0.032,,,,,,
TARS2 (UniProt Q9BW92),1.07 ± 0.074,1.04 ± 0.048,,,,,,
UniProt Q99941 and related entries,0.953 ± 0.034,1.1 ± 0.026,,,,,,
UniProt Q99719 and related entries,1.07 ± 0.032,1.05 ± 0.031,,,,,,
UniProt Q99996-3|Q99996-5|A0A0A0MRF6|Q99996 and related entries,0.979 ± 0.058,1.01 ± 0.081,,,,,,
UniProt Q9BVS4,1 ± 0.076,1.07 ± 0.077,,,,,,
UniProt Q9BZE9 and related entries,0.9735 ± 0.0056,0.981 ± 0.038,,,,,,
PHF20 (UniProt Q9BVI0),1.02 ± 0.045,1.12 ± 0.063,,,,,,
MIPEP (UniProt Q99797),1.04 ± 0.069,1.02 ± 0.073,,,,,,
HINT2 (UniProt Q9BX68),0.975 ± 0.02,0.956 ± 0.05,,,,,,
UniProt Q9BZL4 and related entries,0.979 ± 0.013,0.988 ± 0.029,,,,,,
UniProt Q9BSD7,1.02 ± 0.024,1.088 ± 0.0027,,,,,,
UniProt Q9BXW9 and related entries,0.9454 ± 0.0066,0.966 ± 0.037,,,,,,
NOC4L (UniProt Q9BVI4),1.02 ± 0.062,1 ± 0.023,,,,,,

# 7 entries from above, reformatted.
Target	NP40-soluble protein abundance (concentration: 0.1mM)	NP40-soluble protein abundance (concentration: 0.5mM)	NP40-soluble protein abundance (concentration: 1mM)	NP40-soluble protein abundance (concentration: 2mM)	NP40-soluble protein abundance (concentration: 4mM)	NP40-soluble protein abundance (concentration: 6mM)	NP40-soluble protein abundance (concentration: 8mM)	NP40-soluble protein abundance (concentration: 10mM)
UniProt Q99996-3|Q99996-5|A0A0A0MRF6|Q99996 and related entries	0.979 ± 0.058	1.01 ± 0.081						
UniProt Q9BVS4	1 ± 0.076	1.07 ± 0.077						
UniProt Q9BZE9 and related entries	0.9735 ± 0.0056	0.981 ± 0.038						
PHF20 (UniProt Q9BVI0)	1.02 ± 0.045	1.12 ± 0.063						
MIPEP (UniProt Q99797)	1.04 ± 0.069	1.02 ± 0.073						
HINT2 (UniProt Q9BX68)	0.975 ± 0.02	0.956 ± 0.05						
UniProt Q9BZL4 and related entries	0.979 ± 0.013	0.988 ± 0.029						

# More entries follow.

Target,NP40-soluble protein abundance (concentration: 0.1mM),NP40-soluble protein abundance (concentration: 0.5mM),NP40-soluble protein abundance (concentration: 1mM),NP40-soluble protein abundance (concentration: 2mM),NP40-soluble protein abundance (concentration: 4mM),NP40-soluble protein abundance (concentration: 6mM),NP40-soluble protein abundance (concentration: 8mM),NP40-soluble protein abundance (concentration: 10mM)
UniProt Q9BQT9 and related entries,1 ± 0.17,1.03 ± 0.093,,,,,,
PAAF1 (UniProt Q9BRP4),1.06 ± 0.051,1.05 ± 0.011,1.02 ± 0.037,1.04 ± 0.02,1.01 ± 0.072,0.982 ± 0.02,0.977 ± 0.011,1.01 ± 0.023
TCF25 (UniProt Q9BQ70),0.993 ± 0.03,0.988 ± 0.064,,,,,,
MECR (UniProt Q9BV79),1.02 ± 0.014,0.972 ± 0.014,0.969 ± 0.013,0.959 ± 0.056,0.964 ± 0.037,0.957 ± 0.054,0.94 ± 0.013,0.92 ± 0.012
TMEM109 (UniProt Q9BVC6),0.912 ± 0.038,0.811 ± 0.12,0.943 ± 0.051,0.962 ± 0.066,0.999 ± 0.082,0.915 ± 0.03,0.955 ± 0.046,0.91 ± 0.074
DHRS4 (UniProt Q9BTZ2),1.03 ± 0.021,1.03 ± 0.038,0.9895 ± 0.0086,0.987 ± 0.019,0.989 ± 0.043,0.956 ± 0.028,0.968 ± 0.035,0.988 ± 0.018
DDX50 (UniProt Q9BQ39),0.984 ± 0.03,1.19 ± 0.039,1.35 ± 0.086,1.67 ± 0.17,2.19 ± 0.26,2.88 ± 0.35,3.54 ± 0.54,4.32 ± 0.63
UniProt Q9BXK5 and related entries,0.988 ± 0.023,0.967 ± 0.024,0.958 ± 0.041,0.97 ± 0.011,0.957 ± 0.028,0.988 ± 0.021,0.926 ± 0.031,0.916 ± 0.052
UniProt Q99873-3|Q99873-4,1.11 ± 0.17,1.12 ± 0.16,,,,,,
UniProt Q9BZ23 and related entries,1.04 ± 0.024,0.986 ± 0.041,0.958 ± 0.079,0.995 ± 0.08,0.937 ± 0.054,0.914 ± 0.05,0.882 ± 0.11,0.91 ± 0.05
UniProt Q9BTX1 and related entries,0.985 ± 0.031,1.02 ± 0.012,1.01 ± 0.076,1.01 ± 0.071,1.03 ± 0.1,0.996 ± 0.13,1.06 ± 0.044,1.08 ± 0.084
UniProt Q9BTE6 and related entries,0.992 ± 0.05,1.01 ± 0.047,0.947 ± 0.046,0.965 ± 0.018,0.932 ± 0.015,0.964 ± 0.067,0.928 ± 0.036,0.958 ± 0.025
UniProt Q99729-3|Q99729,0.979 ± 0.02,0.987 ± 0.033,,,,,,
UniProt Q9BRQ0 and related entries,0.89 ± 0.13,0.896 ± 0.13,0.931 ± 0.11,0.887 ± 0.18,0.898 ± 0.15,0.944 ± 0.19,0.865 ± 0.15,0.909 ± 0.29
UniProt Q99653,0.982 ± 0.073,0.939 ± 0.086,0.961 ± 0.041,0.989 ± 0.011,0.983 ± 0.029,0.965 ± 0.054,0.961 ± 0.059,0.931 ± 0.037
UniProt Q9BXI6 and related entries,0.994 ± 0.034,0.958 ± 0.045,0.935 ± 0.035,0.917 ± 0.032,0.927 ± 0.031,0.941 ± 0.038,0.895 ± 0.025,0.925 ± 0.045
VRK1 (UniProt Q99986),1.09 ± 0.084,1.38 ± 0.062,1.39 ± 0.026,1.43 ± 0.021,1.44 ± 0.039,1.51 ± 0.057,1.52 ± 0.031,1.48 ± 0.063
UniProt Q99683 and related entries,1.01 ± 0.052,1.032 ± 0.0062,,,,,,
UniProt Q9BSW2-2,1.03 ± 0.032,1.02 ± 0.018,0.967 ± 0.041,1.01 ± 0.034,1.02 ± 0.02,1.01 ± 0.018,0.972 ± 0.0098,0.988 ± 0.04
ABHD6 (UniProt Q9BV23),1.13 ± 0.14,1.07 ± 0.076,,,,,,
UniProt Q9BUA3,0.993 ± 0.091,1.01 ± 0.075,1.02 ± 0.11,1.03 ± 0.09,1.03 ± 0.082,1.04 ± 0.12,0.992 ± 0.08,1 ± 0.019
